The text below walks through data of PMC6003972.

The chains behind the UniProt entries cited, without tags or fusion partners.
UniProt Q04206, whole entry: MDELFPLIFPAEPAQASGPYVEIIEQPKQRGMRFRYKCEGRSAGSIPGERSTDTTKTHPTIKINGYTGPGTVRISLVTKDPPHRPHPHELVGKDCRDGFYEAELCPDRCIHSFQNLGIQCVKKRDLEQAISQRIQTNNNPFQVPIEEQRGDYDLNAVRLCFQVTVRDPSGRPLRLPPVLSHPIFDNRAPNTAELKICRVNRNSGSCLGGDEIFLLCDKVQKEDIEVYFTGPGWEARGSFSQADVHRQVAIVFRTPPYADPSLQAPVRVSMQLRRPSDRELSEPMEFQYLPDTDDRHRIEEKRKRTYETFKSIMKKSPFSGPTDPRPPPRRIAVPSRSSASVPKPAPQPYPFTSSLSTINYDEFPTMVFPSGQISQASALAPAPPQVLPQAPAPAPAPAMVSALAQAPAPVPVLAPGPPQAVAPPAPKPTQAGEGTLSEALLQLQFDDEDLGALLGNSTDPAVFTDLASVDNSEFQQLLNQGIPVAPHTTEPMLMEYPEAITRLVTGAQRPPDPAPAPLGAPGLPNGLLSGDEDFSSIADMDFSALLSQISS

One data set deals with NF-kB p65 (UniProt Q04206). Put plainly: EMSA supershift. To be noted: KYSE150 nuclear extract 2 ug, 20 fmol probe, anti-p65, LightShift chemiluminescent EMSA kit, 20 uL reaction, 2 ug nuclear extract, room temperature 25 min, antibody with extract 10 min at 4 C, protein in an extract. In general terms: A gel shift assay detects complexes by their altered migration in electrophoresis.

The target of the next data set is T1, Rel-B (UniProt Q01201).
T1 sequence (looked up, limits assumed): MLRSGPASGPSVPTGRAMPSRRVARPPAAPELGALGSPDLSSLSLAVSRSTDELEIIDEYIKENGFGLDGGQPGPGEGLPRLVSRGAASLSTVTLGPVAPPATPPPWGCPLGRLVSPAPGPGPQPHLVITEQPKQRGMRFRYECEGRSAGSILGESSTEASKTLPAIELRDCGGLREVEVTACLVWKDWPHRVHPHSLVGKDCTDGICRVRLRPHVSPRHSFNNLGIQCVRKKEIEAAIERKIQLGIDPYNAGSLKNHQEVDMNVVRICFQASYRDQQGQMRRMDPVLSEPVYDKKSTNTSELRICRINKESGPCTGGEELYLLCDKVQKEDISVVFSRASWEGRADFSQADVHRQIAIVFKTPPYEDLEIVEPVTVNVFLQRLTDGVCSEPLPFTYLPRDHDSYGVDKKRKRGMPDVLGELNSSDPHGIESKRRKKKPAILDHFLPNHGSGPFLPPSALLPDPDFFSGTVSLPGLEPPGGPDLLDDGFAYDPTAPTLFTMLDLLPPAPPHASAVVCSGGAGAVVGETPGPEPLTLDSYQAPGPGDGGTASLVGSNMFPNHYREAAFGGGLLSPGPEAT
As to the kind of experiment: EMSA supershift. To be noted: KYSE150 nuclear extract 2 ug, 20 fmol probe, anti-Rel-B, LightShift chemiluminescent EMSA kit, 20 uL reaction, 2 ug nuclear extract, room temperature 25 min, antibody with extract 10 min at 4 C, protein in an extract.

Construct, isoform or probe ends are uncertain for at least one entry. At least one result comes from cells or an extract, where the contact may be indirect. For some assays here: Where a protein sequence is shown, tags need not be part of it.

Take “TGGGGAGGAGCTGCCAGGATTCAGGAGTTTCCTGGGTGAG (double strand) [SLC52A3 TBS3 EMSA probe (-2782/-2743)]”: the binding result in the data set with NF-kB p65 and with Rel-B was “binds” throughout.
